This assay relates to rat kidney. In words: Renal cortical blood flow (laser doppler) after infusion into the renal artery. The format is in vivo. As to conditions: 100 pmol/min where stated.

The match of structure and compound is tentative.

Consider `CC[C@H](C)[C@H](NC(=O)[C@@H](N)Cc1ccc(O)cc1)C(=O)N[C@@H](Cc1c[nH]cn1)C(=O)N1CCC[C@H]1C(=O)N[C@@H](Cc1ccccc1)C(=O)O`, for which the “change in renal cortical blood flow, in words” value is recorded as “no effect on renal blood flow”.

(Values after US6022696A, “Methods of identifying agonists or antagonists of angiotensin IV” (Washington State University Research Foundation, priority 1998, dated 2000).)
